From patent publication US20200207867A1
No constants are given. Whether binding was seen depends on the method and setting. Some entries that bind do so weakly or less than the wild type.

Chains of the proteins cited; added tags and fusions are not shown.
UniProt P28907: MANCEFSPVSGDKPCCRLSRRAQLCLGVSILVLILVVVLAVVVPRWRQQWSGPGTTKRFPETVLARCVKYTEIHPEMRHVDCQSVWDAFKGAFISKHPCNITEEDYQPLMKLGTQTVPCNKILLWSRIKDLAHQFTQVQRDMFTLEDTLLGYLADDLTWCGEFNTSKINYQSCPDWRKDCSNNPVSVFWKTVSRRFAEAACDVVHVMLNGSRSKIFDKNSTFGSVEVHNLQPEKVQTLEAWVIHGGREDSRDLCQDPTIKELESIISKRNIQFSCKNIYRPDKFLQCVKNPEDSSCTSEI

B1: UniAb 309407 (anti-CD38 heavy chain-only antibody, family F03, IgG1 UniAb format) (antibody, V domains shown)
VH: EVQLLESGGGLVQPGGSLRLSCAASGFIFSSYAMSWVRQAPGKGQEWVSGVSGTGVNTYYADSVKGRFTISRDNSKNTLYLQMNSLRAEDTAVYYCASGKGWDSGSWYEDYRGQGTLVTVSS
B2: UniAb 309407 on a human IgG4 background (antibody, V domains shown)
VH: B1 VH
B3: UniAb 309021 (anti-CD38 heavy chain-only antibody, IgG1 UniAb format) (antibody, V domains shown)
VH: QLQLQESGPGLVKPSETLALTCNVSGGSISSSSYYWGWIRQPPGKRLEWIGSIYYSGSTYFNPSLKSRVTISVDTSKNQFSLKLSSVTAADTAVYYCAGGDYYGPVGQWPSDYRGQGTLVTVSS

Legend:
[1] = molecular target: human CD38 on Ramos cells (CD38-positive Burkitt's lymphoma cell line) (human) (UniProt P28907); experiment: flow cytometry on Ramos cells pre-treated with Daratumumab or Isatuximab (figure legend)
[2] = molecular target: human CD38 on Ramos cells (CD38-positive Burkitt's lymphoma cell line) (human) (UniProt P28907); experiment: stated with the CDC experiment of FIG. 25
[3] = molecular target: human CD38 on Ramos cells (CD38-positive Burkitt's lymphoma cell line) (human) (UniProt P28907); experiment: flow cytometry on Ramos cells pre-treated with Daratumumab or Isatuximab
[4] = molecular target: human CD38 on Ramos cells (CD38-positive Burkitt's lymphoma cell line) (human) (UniProt P28907); experiment: stated with the CDC experiment of FIG. 25 (figure legend)
[5] = molecular target: human CD38 on Ramos cells (CD38-positive Burkitt's lymphoma cell line) (human) (UniProt P28907); experiment: inferred from CDC on Ramos cells with Daratumumab
[6] = molecular target: human CD38 on Ramos cells (CD38-positive Burkitt's lymphoma cell line) (human) (UniProt P28907); experiment: inferred from CDC on Ramos cells with Daratumumab (figure legend)

Binder | binding [1] | binding [2] | binding [3] | binding [4] | binding [5] | binding [6]
B1 | binds | binds | binds | binds | – | –
B2 | – | – | – | – | binds | binds
B3 | – | binds | – | binds | – | –
